PubChem BioAssay AID686937 | Drosophila RNAi Screening Center, 2013
Assay: 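Knock-downs that reduce output of a secreted reporter enzyme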 (primary screen). Cell system: Drosophila S2 cells expressing secreted horseradish peroxidase. Reagents: long dsRNA against Drosophila genes. Time to read-out: about 5.5 days (5 days dsRNA, then 12 h reporter induction). Treatment: reporter expression induced after 5 days of dsRNA, read 12 h later; inducer not stated. Detection: 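After 5 days of dsRNA and 12 h of reporter induction, medium peroxidase read by chemiluminescence and scored as per-plate z-score; higher values mean more reporter released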. Reading the numbers: z-score: higher = more reporter secreted into medium.
The screen tested about 23,000 reagents; below is a random part of those that have a named target and a result. 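Reduced-secretion tags in replicate 1 do not always agree with the z-scores; no criterion for assigning the tags was given.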 The numbers tell different reagents against one gene apart. The record does not give: the amount of reagent.

target	reagent	z-score, replicate 1	z-score, replicate 2	z-score, replicate 3	z-score, replicate 4	phenotype, replicate 1
Ocho	1	0.48	0.36			
ND-24L	1	0.34	0.02			
CG12446	1	0.42	0.13			
Myo31DF	1	0.34	0.37			
Myo31DF	2	-0.78	-0.27			
CG31635	1	0.83	0.46			
CG31635	2	-0.85	-0.48			
Sf3b6	1	-0.24	-0.21			
Gba1b	1	1.31	-0.68			
Acadvl	1	-1.69	-2.08			reduced secretion
Eig71Ec	1	0.26	0.42			
CG10459	1	0.33	0.39			
CG10459	2	0.72	0.2			
nis	1	-0.46	-0.37			
CG14805	1	0.04	-0.05			
CG18301	1	-0.02	0.18			
Or71a	1	0.14	0.34			
CG7742	1	0.27	0.33			
CG14545	1	0.24	0.36			
CG3961	1	0.23	0.33			
CG3961	2	0.45	-0.04			
hang	1	-0.85	-1.3			
hang	2	-0.81	-0.38			
CG9776	1	0.54	0.39			
Ir76b	1	0.08	0.33			
Cul3	1	-0.16	-0.12			
Cul3	2	0.18	-0.17			
CG8526	1	0.32	0.71			
CG10973	1	0.43	0.3			
CtsL2	1	0.31	0.31			
Prp8	1	-4.58	-2.57			reduced secretion
CG43755	1	-0.12	0.33			
Naa15-16	1	0.21	0.73	-1.43	0.53	
Naa15-16	2	-0.06	0.3			
CG10713	1	0.54	0.41			
Cf2	1	-4.47	-1.86			reduced secretion
CG18294	1	0.28	0.28			
Mrm2	1	0.23	0.11			
CG5391	1	0.34	-0.5			
Cbs	1	0.23	0.32			
CG43078	1	0.62	0.4			
CG43078	2	0.62	0.2			
CG43078	3	0	-0.43			
CG43078	4	-0.57	-0.22			
CG34248	1	0.04	0.1			
Dhc36C	1	0.21	0.33			
Ldaf1	1	0.52	0.49			
Taf5	1	0.09	-0.14			
Targ1	1	0.13	-0.37			
Rab3-GAP	1	0.29	0.34			
naz	1	0.17	0.38			
naz	2	0.49	0.55			
Tm1	1	0.09	-0.07			
Tm1	2	0.24	0.4	0.55	0.03	
Tm1	3	0.04	0.17			
CG42656	1	-0.06	0.5			
CG3679	1	0.41	0.34			
Qsox4	1	0.34	0.37			
Mur11Da	1	0.57	0.32			
CG15084	1	0.21	0.4	0.13	0.3	
CG15084	2	0.66	-0.54			
Ssb-c31a	1	0.33	0.46			
snf	1	-2.32	-0.22			reduced secretion
klar	1	0.16	0.35			
klar	2	0.38	0.75			
CG12507	1	0.35	0.64			
CG12914	1	0.19	0.22			
Nxt1	1	-1.08	-1.16			
MetRS	1	0.14	0.41			
ppk21	1	0.2	0.32			
CG14186	1	0.51	0.22			
CG32687	1	0.15	0.71			
CG32687	2	0.2	0.02			
ms(2)35Ci	1	0.62	0.55			
CG11999	1	0.35	0.48			
Reck	1	0.35	0.25			
Reck	2	0.42	0.47			
Axn	1	0.3	0.25	0.39	0.25	
CG9173	1	0.51	0.27			
CG34384	1	0.23	0.39	-0.56	0.34	
CG34384	2	0.04	0.18			
CG34384	3	-0.13	-0.41			
CG34384	4	0.17	0.22			
CG34384	5	0.23	0.22			
